PubChem BioAssay AID602196, INSERM – 2012
The whole screen tested about 23,000 reagents; this is an unselected part. Over the whole deposit, 455 (2%) were called active. 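Active includes both protection and sensitisation; some change values fall well beyond the stated -50 to +50 range.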 Not all columns of the deposit are shown. Reagent sequences are not shown. Not stated in the record: the amount of reagent.

Test: 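Genes whose knock-down alters cisplatin killing of lung cancer cells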
Cell system: human A549 lung cancer cells
Knock-down reagent: siRNA pair against human genes
Timing: 48 h transfection before cisplatin; time from cisplatin to read-out not stated
Treatment: cisplatin at a dose killing half of control-siRNA cells; exact dose and duration not given
Measured: 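Cisplatin cell death as a shift from the 50% death seen with control siRNA; siRNAs toxic or growth-blocking alone scored 0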
Scale: two-siRNA summed score (-2 to +2): higher = both siRNAs protect from cisplatin killing; -2 means both sensitise; mean protection from cisplatin (shift in death): higher = protection from cisplatin killing
Call rule: 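siRNAs harmful alone (LDH or WST-1) get 0; others get +1 for less and -1 for more cisplatin killing; genes are active when the two siRNAs give the same sign, summing to ±2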
Calls: active = both siRNAs shift cisplatin killing the same way; inactive = no consistent shift, or siRNA harmful alone

SLC35A5 showed two-siRNA summed score (-2 to +2) = 0; mean protection from cisplatin (shift in death) (%) = 0.3; inactive.
With knock-down of TRIM3, the screen gave two-siRNA summed score (-2 to +2) = 0; mean protection from cisplatin (shift in death) (%) = 4; inactive.
For REEP5, the values are two-siRNA summed score (-2 to +2) = 1; mean protection from cisplatin (shift in death) (%) = 10.9; inactive.
Silencing of SDS came out at: two-siRNA summed score (-2 to +2) = 0; mean protection from cisplatin (shift in death) (%) = 13.9; inactive.
PCDHGB6 gave two-siRNA summed score (-2 to +2) = 0; mean protection from cisplatin (shift in death) (%) = 3.8; inactive.
Knock-down of TXNDC9P1 came out at: two-siRNA summed score (-2 to +2) = -1; mean protection from cisplatin (shift in death) (%) = -14; inactive.
Against LOC441088, the entry reads two-siRNA summed score (-2 to +2) = -1; mean protection from cisplatin (shift in death) (%) = -5.4; inactive.
For LOC388327 the deposit lists two-siRNA summed score (-2 to +2) = 0; mean protection from cisplatin (shift in death) (%) = 5.1; inactive.
For RGL3, the values are two-siRNA summed score (-2 to +2) = 0; mean protection from cisplatin (shift in death) (%) = 24; inactive.
With knock-down of MPZ, the screen gave two-siRNA summed score (-2 to +2) = -1; mean protection from cisplatin (shift in death) (%) = -0.8; inactive.
With knock-down of ERICH1, the record shows two-siRNA summed score (-2 to +2) = -1; mean protection from cisplatin (shift in death) (%) = -12.9; inactive.
Depletion of ITPK1 came out at: two-siRNA summed score (-2 to +2) = 0; mean protection from cisplatin (shift in death) (%) = -8.3; inactive.
Against SHLD2P1, the entry reads two-siRNA summed score (-2 to +2) = 0; mean protection from cisplatin (shift in death) (%) = -2.2; inactive.
Against CCNE2 the deposit lists two-siRNA summed score (-2 to +2) = 0; mean protection from cisplatin (shift in death) (%) = -1; inactive.

Laid out differently: entries from further up.
LOC388327
- two-siRNA summed score (-2 to +2): 0
- mean protection from cisplatin (shift in death) (%): 5.1
- call: inactive

RGL3
- two-siRNA summed score (-2 to +2): 0
- mean protection from cisplatin (shift in death) (%): 24
- call: inactive

MPZ
- two-siRNA summed score (-2 to +2): -1
- mean protection from cisplatin (shift in death) (%): -0.8
- call: inactive

ERICH1
- two-siRNA summed score (-2 to +2): -1
- mean protection from cisplatin (shift in death) (%): -12.9
- call: inactive

ITPK1
- two-siRNA summed score (-2 to +2): 0
- mean protection from cisplatin (shift in death) (%): -8.3
- call: inactive

SHLD2P1
- two-siRNA summed score (-2 to +2): 0
- mean protection from cisplatin (shift in death) (%): -2.2
- call: inactive

The list goes on.
SUN2 gave two-siRNA summed score (-2 to +2) = 0; mean protection from cisplatin (shift in death) (%) = 2.3; inactive.
After knock-down of PTMS, the screen gave two-siRNA summed score (-2 to +2) = -1; mean protection from cisplatin (shift in death) (%) = -2; inactive.
OPLAH gave two-siRNA summed score (-2 to +2) = 0; mean protection from cisplatin (shift in death) (%) = -7.8; inactive.
Knock-down of COPS2 gave: two-siRNA summed score (-2 to +2) = 0; mean protection from cisplatin (shift in death) (%) = -1.8; inactive.
WDR70 scored two-siRNA summed score (-2 to +2) = 0; mean protection from cisplatin (shift in death) (%) = -1.4; inactive.
Against YLPM1, the values are two-siRNA summed score (-2 to +2) = 0; mean protection from cisplatin (shift in death) (%) = 3.2; inactive.
With knock-down of LOC441830, the screen gave two-siRNA summed score (-2 to +2) = 0; mean protection from cisplatin (shift in death) (%) = 4.9; inactive.
Depletion of NUP133 gave: two-siRNA summed score (-2 to +2) = 0; mean protection from cisplatin (shift in death) (%) = 9.7; inactive.
SGMS2 scored two-siRNA summed score (-2 to +2) = -1; mean protection from cisplatin (shift in death) (%) = -2; inactive.
Knock-down of PAIP1 resulted in: two-siRNA summed score (-2 to +2) = 0; mean protection from cisplatin (shift in death) (%) = 2.3; inactive.
For URB2 the deposit lists two-siRNA summed score (-2 to +2) = 1; mean protection from cisplatin (shift in death) (%) = 5.7; inactive.
After knock-down of LOC151443, the screen gave two-siRNA summed score (-2 to +2) = -1; mean protection from cisplatin (shift in death) (%) = -9.9; inactive.
RNF10 scored two-siRNA summed score (-2 to +2) = 0; mean protection from cisplatin (shift in death) (%) = -5; inactive.
After knock-down of ZNF682 the results were two-siRNA summed score (-2 to +2) = 1; mean protection from cisplatin (shift in death) (%) = 13.7; inactive.
Silencing of MPC1L came out at: two-siRNA summed score (-2 to +2) = -1; mean protection from cisplatin (shift in death) (%) = -2.1; inactive.
For SLC1A5, the values are two-siRNA summed score (-2 to +2) = 0; mean protection from cisplatin (shift in death) (%) = 6.2; inactive.
Knock-down of LOC441886 resulted in: two-siRNA summed score (-2 to +2) = 0; mean protection from cisplatin (shift in death) (%) = 6.7; inactive.
Against TSC22D1 the deposit lists two-siRNA summed score (-2 to +2) = 0; mean protection from cisplatin (shift in death) (%) = 1.5; inactive.
AGBL3 scored two-siRNA summed score (-2 to +2) = 0; mean protection from cisplatin (shift in death) (%) = -8.9; inactive.
Depletion of MELTF came out at: two-siRNA summed score (-2 to +2) = -1; mean protection from cisplatin (shift in death) (%) = -10.8; inactive.
MICALL1 scored two-siRNA summed score (-2 to +2) = 0; mean protection from cisplatin (shift in death) (%) = -2; inactive.
SORBS2 scored two-siRNA summed score (-2 to +2) = 0; mean protection from cisplatin (shift in death) (%) = -4.1; inactive.
After knock-down of KIAA1920, the screen gave two-siRNA summed score (-2 to +2) = 0; mean protection from cisplatin (shift in death) (%) = 4.7; inactive.
SLC5A5 showed two-siRNA summed score (-2 to +2) = 1; mean protection from cisplatin (shift in death) (%) = 18.4; inactive.
For PEX12, the entry reads two-siRNA summed score (-2 to +2) = -1; mean protection from cisplatin (shift in death) (%) = 10.2; inactive.
With knock-down of GASK1B, the record shows two-siRNA summed score (-2 to +2) = 0; mean protection from cisplatin (shift in death) (%) = -5.7; inactive.
